Experimental data published in paper doi:10.1101/2024.02.14.580406.
Results are given in words; binding and its absence hold for the method and conditions named. In cells and extracts the contact can be indirect. These calls come from enrichment with a bait or labelling near it, and not all partners need be listed. No binding means not detected with the bait.

Key:
[1] = biological target: PEAK2 homodimer (BiCAP: V1-PEAK2 with V2-PEAK2); assay: affinity purification with mass spectrometry
[2] = biological target: PEAK1 homodimer (BiCAP: V1-PEAK1 with V2-PEAK1) (human); assay: affinity purification with mass spectrometry

binding [1] | binding [2] | Binder
binds |  | SPRY4 (protein, UniProt Q9C004 1-299) MEPPIPQSAPLTPNSVMVQPLLDSRMSHSRLQHPLTILPIDQVKTSHVENDYIDNPSLALTTGPKRTRGGAPELAPTPARCDQDVTHHWISFSGRPSSVSSSSSTSSDQRLLDHMAPPPVADQASPRAVRIQPKVVHCQPLDLKGPAVPPELDKHFLLCEACGKCKCKECASPRTLPSCWVCNQECLCSAQTLVNYGTCMCLVQGIFYHCTNEDDEGSCADHPCSCSRSNCCARWSFMGALSVVLPCLLCYLPATGCVKLAQRGYDRLRRPGCRCKHTNSVICKAASGDAKTSRPDKPF
binds |  | FARP1 (protein, UniProt Q9Y4F1 1-1045) MGEIEQRPTPGSRLGAPENSGISTLERGQKPPPTPSGKLVSIKIQMLDDTQEAFEVPQRAPGKVLLDAVCNHLNLVEGDYFGLEFPDHKKITVWLDLLKPIVKQIRRPKHVVVKFVVKFFPPDHTQLQEELTRYLFALQVKQDLAQGRLTCNDTSAALLISHIVQSEIGDFDEALDREHLAKNKYIPQQDALEDKIVEFHHNHIGQTPAESDFQLLEIARRLEMYGIRLHPAKDREGTKINLAVANTGILVFQGFTKINAFNWAKVRKLSFKRKRFLIKLRPDANSAYQDTLEFLMASRDFCKSFWKICVEHHAFFRLFEEPKPKPKPVLFSRGSSFRFSGRTQKQVLDYVKEGGHKKVQFERKHSKIHSIRSLASQPTELNSEVLEQSQQSTSLTFGEGAESPGGQSCRRGKEPKVSAGEPGSHPSPAPRRSPAGNKQADGAASAPTEEEEEVVKDRTQQSKPQPPQPSTGSLTGSPHLSELSVNSQGGVAPANVTLSPNLSPDTKQASPLISPLLNDQACPRTDDEDEGRRKRFPTDKAYFIAKEVSTTERTYLKDLEVITSWFQSTVSKEDAMPEALKSLIFPNFEPLHKFHTNFLKEIEQRLALWEGRSNAQIRDYQRIGDVMLKNIQGMKHLAAHLWKHSEALEALENGIKSSRRLENFCRDFELQKVCYLPLNTFLLRPLHRLMHYKQVLERLCKHHPPSHADFRDCRAALAEITEMVAQLHGTMIKMENFQKLHELKKDLIGIDNLVVPGREFIRLGSLSKLSGKGLQQRMFFLFNDVLLYTSRGLTASNQFKVHGQLPLYGMTIEESEDEWGVPHCLTLRGQRQSIIVAASSRSEMEKWVEDIQMAIDLAEKSSSPAPEFLASSPPDNKSPDEATAADQESEDDLSASRTSLERQAPHRGNTMVHVCWHRNTSVSMVDFSIAVENQLSGNLLRKFKNSNGWQKLWVVFTNFCLFFYKSHQDNHPLASLPLLGYSLTIPSESENIQKDYVFKLHFKSHVYYFRAESEYTFERWMEVIRSATSSASRPHVLSHKESLVY
no binding | no binding | PLCγ1 (enzyme, UniProt P19174 1-1290) MAGAASPCANGCGPGAPSDAEVLHLCRSLEVGTVMTLFYSKKSQRPERKTFQVKLETRQITWSRGADKIEGAIDIREIKEIRPGKTSRDFDRYQEDPAFRPDQSHCFVILYGMEFRLKTLSLQATSEDEVNMWIKGLTWLMEDTLQAPTPLQIERWLRKQFYSVDRNREDRISAKDLKNMLSQVNYRVPNMRFLRERLTDLEQRSGDITYGQFAQLYRSLMYSAQKTMDLPFLEASTLRAGERPELCRVSLPEFQQFLLDYQGELWAVDRLQVQEFMLSFLRDPLREIEEPYFFLDEFVTFLFSKENSVWNSQLDAVCPDTMNNPLSHYWISSSHNTYLTGDQFSSESSLEAYARCLRMGCRCIELDCWDGPDGMPVIYHGHTLTTKIKFSDVLHTIKEHAFVASEYPVILSIEDHCSIAQQRNMAQYFKKVLGDTLLTKPVEISADGLPSPNQLKRKILIKHKKLAEGSAYEEVPTSMMYSENDISNSIKNGILYLEDPVNHEWYPHYFVLTSSKIYYSEETSSDQGNEDEEEPKEVSSSTELHSNEKWFHGKLGAGRDGRHIAERLLTEYCIETGAPDGSFLVRESETFVGDYTLSFWRNGKVQHCRIHSRQDAGTPKFFLTDNLVFDSLYDLITHYQQVPLRCNEFEMRLSEPVPQTNAHESKEWYHASLTRAQAEHMLMRVPRDGAFLVRKRNEPNSYAISFRAEGKIKHCRVQQEGQTVMLGNSEFDSLVDLISYYEKHPLYRKMKLRYPINEEALEKIGTAEPDYGALYEGRNPGFYVEANPMPTFKCAVKALFDYKAQREDELTFIKSAIIQNVEKQEGGWWRGDYGGKKQLWFPSNYVEEMVNPVALEPEREHLDENSPLGDLLRGVLDVPACQIAIRPEGKNNRLFVFSISMASVAHWSLDVAADSQEELQDWVKKIREVAQTADARLTEGKIMERRKKIALELSELVVYCRPVPFDEEKIGTERACYRDMSSFPETKAEKYVNKAKGKKFLQYNRLQLSRIYPKGQRLDSSNYDPLPMWICGSQLVALNFQTPDKPMQMNQALFMTGRHCGYVLQPSTMRDEAFDPFDKSSLRGLEPCAISIEVLGARHLPKNGRGIVCPFVEIEVAGAEYDSTKQKTEFVVDNGLNPVWPAKPFHFQISNPEFAFLRFVVYEEDMFSDQNFLAQATFPVKGLKTGYRAVPLKNNYSEDLELASLLIKIDIFPAKENGDLSPFSGTSLRERGSDASGQLFHGRAREGSFESRYQQPFEDFRISQEHLADHFDSRERRAPRRTRVNGDNRL
